From the supplement of paper PMC12067093, “Discovery and optimisation of a covalent ligand for TRIM25 and its application to targeted protein ubiquitination” (Chemical Science, 2025)
Some of the results follow.

By UniProt entry, the sequences of proteins in these tests, tags left out. Where a name states a change or a piece, a line headed by the entry shows the natural chain unless it says otherwise.
UniProt P53618: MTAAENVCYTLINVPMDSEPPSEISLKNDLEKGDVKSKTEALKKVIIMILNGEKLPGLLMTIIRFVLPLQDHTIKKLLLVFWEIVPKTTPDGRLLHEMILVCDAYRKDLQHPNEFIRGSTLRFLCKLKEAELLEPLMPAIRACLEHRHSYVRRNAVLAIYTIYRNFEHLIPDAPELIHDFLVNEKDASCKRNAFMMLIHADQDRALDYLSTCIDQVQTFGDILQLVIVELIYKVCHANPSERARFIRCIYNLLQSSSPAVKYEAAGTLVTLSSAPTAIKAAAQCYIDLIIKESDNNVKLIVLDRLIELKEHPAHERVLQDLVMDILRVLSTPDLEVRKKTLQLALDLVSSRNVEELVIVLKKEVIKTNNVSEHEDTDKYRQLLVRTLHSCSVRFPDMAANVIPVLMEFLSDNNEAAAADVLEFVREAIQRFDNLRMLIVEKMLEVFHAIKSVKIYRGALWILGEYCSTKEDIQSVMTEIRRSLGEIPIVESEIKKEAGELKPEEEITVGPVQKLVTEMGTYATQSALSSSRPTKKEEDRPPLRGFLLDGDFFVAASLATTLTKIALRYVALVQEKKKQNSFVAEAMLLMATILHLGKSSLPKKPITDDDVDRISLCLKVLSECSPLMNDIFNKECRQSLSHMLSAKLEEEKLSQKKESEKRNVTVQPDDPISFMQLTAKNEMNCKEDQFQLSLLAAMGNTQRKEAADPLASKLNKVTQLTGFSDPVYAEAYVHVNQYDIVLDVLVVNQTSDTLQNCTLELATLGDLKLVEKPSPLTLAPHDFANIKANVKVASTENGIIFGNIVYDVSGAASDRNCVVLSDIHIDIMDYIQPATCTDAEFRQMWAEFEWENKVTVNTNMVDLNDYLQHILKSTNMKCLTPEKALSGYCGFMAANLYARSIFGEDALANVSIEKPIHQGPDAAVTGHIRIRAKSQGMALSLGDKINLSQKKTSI
UniProt Q6PJW8: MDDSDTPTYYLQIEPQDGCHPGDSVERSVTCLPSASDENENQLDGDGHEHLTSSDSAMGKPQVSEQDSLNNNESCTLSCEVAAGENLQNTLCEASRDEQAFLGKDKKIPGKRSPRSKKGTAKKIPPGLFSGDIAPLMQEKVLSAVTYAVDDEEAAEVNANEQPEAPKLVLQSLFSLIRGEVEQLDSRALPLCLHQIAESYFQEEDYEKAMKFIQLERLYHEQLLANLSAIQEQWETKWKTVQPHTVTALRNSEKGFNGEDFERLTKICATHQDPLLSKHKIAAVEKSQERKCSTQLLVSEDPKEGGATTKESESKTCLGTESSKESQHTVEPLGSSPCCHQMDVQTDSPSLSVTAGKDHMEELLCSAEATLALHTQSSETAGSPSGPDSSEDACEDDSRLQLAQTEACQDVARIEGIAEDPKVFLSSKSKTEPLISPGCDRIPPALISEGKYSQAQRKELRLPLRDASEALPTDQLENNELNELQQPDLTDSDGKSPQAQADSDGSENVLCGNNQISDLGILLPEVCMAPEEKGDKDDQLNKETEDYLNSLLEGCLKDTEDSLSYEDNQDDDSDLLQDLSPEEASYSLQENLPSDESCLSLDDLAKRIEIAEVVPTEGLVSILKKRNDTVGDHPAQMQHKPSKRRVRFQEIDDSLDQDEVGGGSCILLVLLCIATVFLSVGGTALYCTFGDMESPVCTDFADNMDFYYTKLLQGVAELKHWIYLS
UniProt Q9UBF2: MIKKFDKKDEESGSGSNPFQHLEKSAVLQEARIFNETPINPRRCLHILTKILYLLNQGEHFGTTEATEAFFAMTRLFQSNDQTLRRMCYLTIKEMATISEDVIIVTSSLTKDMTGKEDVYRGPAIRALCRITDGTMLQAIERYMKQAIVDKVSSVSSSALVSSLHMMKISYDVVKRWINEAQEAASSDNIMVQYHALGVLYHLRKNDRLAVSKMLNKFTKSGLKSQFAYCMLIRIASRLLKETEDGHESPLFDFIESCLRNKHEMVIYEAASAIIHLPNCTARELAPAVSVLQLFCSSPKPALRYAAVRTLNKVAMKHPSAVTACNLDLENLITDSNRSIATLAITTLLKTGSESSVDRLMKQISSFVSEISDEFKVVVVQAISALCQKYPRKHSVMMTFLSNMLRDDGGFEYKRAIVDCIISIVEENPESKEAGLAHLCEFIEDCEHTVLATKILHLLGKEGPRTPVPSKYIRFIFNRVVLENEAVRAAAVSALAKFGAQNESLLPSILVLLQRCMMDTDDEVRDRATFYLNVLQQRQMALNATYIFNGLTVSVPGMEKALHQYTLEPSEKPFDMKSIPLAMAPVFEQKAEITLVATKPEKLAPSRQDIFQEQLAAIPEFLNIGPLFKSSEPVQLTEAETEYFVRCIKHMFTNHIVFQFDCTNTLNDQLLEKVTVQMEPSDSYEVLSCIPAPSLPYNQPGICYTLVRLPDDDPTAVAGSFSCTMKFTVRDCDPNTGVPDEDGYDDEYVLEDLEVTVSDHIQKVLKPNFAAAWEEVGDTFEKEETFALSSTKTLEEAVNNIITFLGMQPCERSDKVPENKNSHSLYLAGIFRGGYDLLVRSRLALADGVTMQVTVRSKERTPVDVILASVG
UniProt Q9Y5P4: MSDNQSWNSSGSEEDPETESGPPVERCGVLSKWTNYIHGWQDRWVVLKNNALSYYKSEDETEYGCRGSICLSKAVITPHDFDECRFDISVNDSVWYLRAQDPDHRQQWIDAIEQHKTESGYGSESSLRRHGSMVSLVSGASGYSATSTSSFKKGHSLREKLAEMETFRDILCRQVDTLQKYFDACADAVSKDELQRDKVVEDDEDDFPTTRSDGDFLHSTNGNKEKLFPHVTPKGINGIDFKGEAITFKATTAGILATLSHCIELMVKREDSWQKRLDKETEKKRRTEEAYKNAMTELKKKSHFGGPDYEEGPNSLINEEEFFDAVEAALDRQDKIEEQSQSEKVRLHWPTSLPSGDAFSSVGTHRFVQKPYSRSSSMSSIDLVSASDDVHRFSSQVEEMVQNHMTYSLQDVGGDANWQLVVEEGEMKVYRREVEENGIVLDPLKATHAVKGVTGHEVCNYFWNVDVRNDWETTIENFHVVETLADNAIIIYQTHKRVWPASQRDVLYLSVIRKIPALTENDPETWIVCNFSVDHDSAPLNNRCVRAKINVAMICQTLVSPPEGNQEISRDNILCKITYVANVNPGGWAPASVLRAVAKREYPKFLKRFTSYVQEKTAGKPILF
UniProt Q8N1G2: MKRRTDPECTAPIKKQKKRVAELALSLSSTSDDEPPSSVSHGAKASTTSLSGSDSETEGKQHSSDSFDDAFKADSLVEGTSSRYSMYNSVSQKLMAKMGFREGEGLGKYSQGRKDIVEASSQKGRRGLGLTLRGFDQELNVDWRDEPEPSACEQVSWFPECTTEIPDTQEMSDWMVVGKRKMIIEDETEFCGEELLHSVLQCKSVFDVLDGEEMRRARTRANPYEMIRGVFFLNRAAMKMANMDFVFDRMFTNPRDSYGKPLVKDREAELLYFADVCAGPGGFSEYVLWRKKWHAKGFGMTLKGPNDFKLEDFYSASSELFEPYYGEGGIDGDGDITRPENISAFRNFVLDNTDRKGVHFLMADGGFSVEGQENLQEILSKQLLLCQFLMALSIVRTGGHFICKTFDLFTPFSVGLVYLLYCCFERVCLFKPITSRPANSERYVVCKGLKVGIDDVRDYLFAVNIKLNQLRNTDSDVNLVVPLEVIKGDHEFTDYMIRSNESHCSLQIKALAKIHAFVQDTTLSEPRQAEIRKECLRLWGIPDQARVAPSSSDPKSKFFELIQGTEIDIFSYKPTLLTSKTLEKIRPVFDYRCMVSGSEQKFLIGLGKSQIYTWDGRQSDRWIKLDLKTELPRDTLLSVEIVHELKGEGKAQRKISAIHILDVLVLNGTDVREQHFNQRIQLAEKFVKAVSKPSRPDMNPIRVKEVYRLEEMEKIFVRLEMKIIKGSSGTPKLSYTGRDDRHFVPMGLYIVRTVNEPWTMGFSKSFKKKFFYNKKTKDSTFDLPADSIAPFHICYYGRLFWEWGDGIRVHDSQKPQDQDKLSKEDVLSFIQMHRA
UniProt Q99439: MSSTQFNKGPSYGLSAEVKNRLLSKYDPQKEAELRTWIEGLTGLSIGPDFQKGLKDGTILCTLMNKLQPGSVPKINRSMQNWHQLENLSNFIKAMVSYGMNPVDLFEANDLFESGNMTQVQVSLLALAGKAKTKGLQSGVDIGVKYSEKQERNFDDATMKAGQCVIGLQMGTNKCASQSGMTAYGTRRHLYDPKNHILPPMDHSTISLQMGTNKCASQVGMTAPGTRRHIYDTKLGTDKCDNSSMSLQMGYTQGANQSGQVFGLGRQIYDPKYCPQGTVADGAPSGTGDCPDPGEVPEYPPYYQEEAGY
UniProt P62633: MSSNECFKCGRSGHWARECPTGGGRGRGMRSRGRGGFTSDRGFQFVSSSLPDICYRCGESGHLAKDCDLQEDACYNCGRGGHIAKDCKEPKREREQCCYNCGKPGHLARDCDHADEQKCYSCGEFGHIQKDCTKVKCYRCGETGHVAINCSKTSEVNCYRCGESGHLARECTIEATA
UniProt P09543: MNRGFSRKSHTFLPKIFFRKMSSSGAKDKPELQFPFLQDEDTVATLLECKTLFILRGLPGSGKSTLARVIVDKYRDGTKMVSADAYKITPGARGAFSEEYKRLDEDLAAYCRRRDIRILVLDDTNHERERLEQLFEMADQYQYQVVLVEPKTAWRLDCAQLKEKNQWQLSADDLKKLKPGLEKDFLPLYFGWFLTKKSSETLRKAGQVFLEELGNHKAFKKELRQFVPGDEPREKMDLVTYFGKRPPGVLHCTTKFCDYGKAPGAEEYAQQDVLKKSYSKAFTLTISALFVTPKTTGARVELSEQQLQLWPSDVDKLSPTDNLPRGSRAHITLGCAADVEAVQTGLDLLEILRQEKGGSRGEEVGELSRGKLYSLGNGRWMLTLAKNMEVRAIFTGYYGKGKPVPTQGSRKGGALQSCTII
UniProt P21964: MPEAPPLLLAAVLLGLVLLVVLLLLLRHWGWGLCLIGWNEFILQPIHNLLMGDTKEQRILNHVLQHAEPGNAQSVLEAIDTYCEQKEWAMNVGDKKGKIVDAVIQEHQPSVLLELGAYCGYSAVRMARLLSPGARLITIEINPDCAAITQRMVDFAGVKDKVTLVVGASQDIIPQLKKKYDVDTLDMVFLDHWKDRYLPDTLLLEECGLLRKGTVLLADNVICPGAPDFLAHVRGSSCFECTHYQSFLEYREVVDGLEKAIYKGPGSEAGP
UniProt Q9Y678: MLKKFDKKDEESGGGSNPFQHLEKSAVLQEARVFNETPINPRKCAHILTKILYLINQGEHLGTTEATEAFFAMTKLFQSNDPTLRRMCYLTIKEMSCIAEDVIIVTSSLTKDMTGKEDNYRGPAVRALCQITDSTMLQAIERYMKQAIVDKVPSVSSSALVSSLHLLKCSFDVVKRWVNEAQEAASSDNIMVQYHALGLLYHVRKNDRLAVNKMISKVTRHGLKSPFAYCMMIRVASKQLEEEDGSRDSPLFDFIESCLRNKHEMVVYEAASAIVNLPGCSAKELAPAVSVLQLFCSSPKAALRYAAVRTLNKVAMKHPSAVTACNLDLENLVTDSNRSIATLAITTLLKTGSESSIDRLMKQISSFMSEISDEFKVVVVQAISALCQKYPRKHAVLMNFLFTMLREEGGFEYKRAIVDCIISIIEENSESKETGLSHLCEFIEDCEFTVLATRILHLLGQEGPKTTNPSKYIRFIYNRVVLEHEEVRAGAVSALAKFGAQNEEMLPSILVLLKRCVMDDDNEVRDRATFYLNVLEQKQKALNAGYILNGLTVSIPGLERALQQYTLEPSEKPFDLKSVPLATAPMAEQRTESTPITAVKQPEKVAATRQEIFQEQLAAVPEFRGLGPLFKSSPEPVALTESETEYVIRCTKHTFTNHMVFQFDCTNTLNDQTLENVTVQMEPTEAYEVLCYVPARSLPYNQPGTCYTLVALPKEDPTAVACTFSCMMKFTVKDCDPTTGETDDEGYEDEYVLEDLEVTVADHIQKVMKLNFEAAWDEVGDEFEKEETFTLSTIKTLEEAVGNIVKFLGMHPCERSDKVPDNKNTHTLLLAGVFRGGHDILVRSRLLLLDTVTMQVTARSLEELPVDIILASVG
UniProt Q96BR5: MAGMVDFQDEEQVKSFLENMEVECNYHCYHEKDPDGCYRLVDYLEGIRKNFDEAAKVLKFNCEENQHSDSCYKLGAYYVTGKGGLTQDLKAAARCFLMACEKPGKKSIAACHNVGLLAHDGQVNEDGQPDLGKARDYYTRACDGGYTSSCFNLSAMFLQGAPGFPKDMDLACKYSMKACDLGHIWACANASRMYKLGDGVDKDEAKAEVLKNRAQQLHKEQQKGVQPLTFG
UniProt Q86WW8: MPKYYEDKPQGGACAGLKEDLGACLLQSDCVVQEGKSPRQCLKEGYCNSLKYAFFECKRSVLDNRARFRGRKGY
UniProt Q9Y2B0: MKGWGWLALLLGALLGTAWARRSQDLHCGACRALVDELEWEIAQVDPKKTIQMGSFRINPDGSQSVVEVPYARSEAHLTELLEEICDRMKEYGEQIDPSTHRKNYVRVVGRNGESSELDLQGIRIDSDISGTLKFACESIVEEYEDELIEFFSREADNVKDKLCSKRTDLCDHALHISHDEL

Compound: Cc1cc(ccc1-c1ccccc1)C(=O)N1CCCN(CC1)C(=O)CCl [compound 10]
Experiment: probe-labelled cysteine peptide fold change vs DMSO (competition) (log2 fold change); higher = less target engagement (more negative = stronger competition)
Conditions: THP-1, incubation time: 4 h
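Note: competitive profiling in live THP-1 cells: cysteine peptides tagged with an iodoacetamide desthiobiotin (IA-DTB) probe, intensity after compound treatment relative to DMSO-treated cells.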

Target | probe-labelled cysteine peptide fold change (10 µM) | probe-labelled cysteine peptide fold change (50 µM)
COPA_P53621_453_KVQVPNCDEIFYAGTGNLLLR (UniProt P53621) | -0.249 | 0.0498
COPB1_P53618_102_LLHEMILVCDAYRK (UniProt P53618) | 0.0653 | -0.385
CNDP2_Q96KP4_222_GICYFFIEVECSNK (UniProt Q96KP4) | 0.0266 | 0.833
CNST_Q6PJW8_292_CSTQLLVSEDPK (UniProt Q6PJW8) | -0.328 | -0.395
COPG2_Q9UBF2_446_EAGLAHLCEFIEDCEHTVLATK (UniProt Q9UBF2) | -0.0275 | 0.0938
COPE_O14579_212+225_CSPTLLLLNGQAACHMAQGR (UniProt O14579) | -0.254 | -0.429
CNOT1_A5YKK6_1541_YCDPVVLTYQAER (UniProt A5YKK6) | -0.216 | -0.0345
CORO1A_P31146_195_DGGLICTSCR (UniProt P31146) | 0.143 | -0.057
CNST_Q6PJW8_408_LQLAQTEACQDVAR (UniProt Q6PJW8) | -0.571 | -0.127
COL4A3BP_Q9Y5P4_84_AVITPHDFDECR (UniProt Q9Y5P4) | 0.179 | 0.232
CMPK2_Q5EBM0_40_RFVLELPDCTLAHFALGADAPGDADAPDPR (UniProt Q5EBM0) | -0.175 | -0.0666
COQ3_Q9NZJ6_155_ILDVGCGGGLLTEPLGR (UniProt Q9NZJ6) | -0.27 | -0.101
CMTR1_Q8N1G2_794_DSTFDLPADSIAPFHICYYGR (UniProt Q8N1G2) | 0.205 | 0.653
CNN2_Q99439_215_CASQVGMTAPGTR (UniProt Q99439) | -0.0958 | -0.449
CNBP_P62633_97+101_EQCCYNCGKPGHLAR (UniProt P62633) | 0.0258 | -0.446
COPB1_P53618_8_TAAENVCYTLINVPMDSEPPSEISLK (UniProt P53618) | -0.258 | 0.0608
CORO1A_P31146_285_HLEEPLSLQELDTSSGVLLPFFDPDTNIVYLCGK (UniProt P31146) | -0.137 | 0.22
COPB2_P35606_351_DMGSCEIYPQTIQHNPNGR (UniProt P35606) | -0.056 | 0.257
COG4_Q9H9E3_240_FSEYLCK (UniProt Q9H9E3) | 0.0437 | 0.169
CNP_P09543_335_AHITLGCAADVEAVQTGLDLLEILRQEK (UniProt P09543) | -0.205 | -0.657
CNBP_P62633_77_DCDLQEDACYNCGR (UniProt P62633) | 0.0547 | 0.01

Target | probe-labelled cysteine peptide fold change (10 µM) | probe-labelled cysteine peptide fold change (50 µM)
COPB1_P53618_623_VLSECSPLMNDIFNK (UniProt P53618) | 0.126 | -0.049
COMT_P21964_119_IVDAVIQEHQPSVLLELGAYCGYSAVR (UniProt P21964) | 0.0566 | 0.0296
COPA_P53621_1148_ILSACEK (UniProt P53621) | 0.0749 | -0.0454
CNP_P09543_49_DKPELQFPFLQDEDTVATLLECK (UniProt P09543) | 0.0225 | 0.0901
CNBP_P62633_57_CGESGHLAK (UniProt P62633) | 0.0688 | -0.0367
CMSS1_Q9BQ75_121_LVIELEELNLPDSCFLK (UniProt Q9BQ75) | 0.061 | 0.0649
COPA_P53621_1169_NPTDAYQLNYDMHNPFDICAASYR (UniProt P53621) | 0.178 | 0.397
COG5_Q9UP83_716_LAADFAQMELAVGPFCR (UniProt Q9UP83) | 0.0536 | 0.0957
CNOT1_A5YKK6_1457_NLTAGMAMITCR (UniProt A5YKK6) | 0.126 | 0.0884
CNTRL_Q7Z7A1_1451_LLAEAESELSCTK (UniProt Q7Z7A1) | 0.0751 | 0.155
COG2_Q14746_563_NFSSISAALEDSQSSFSACVPSLSSK (UniProt Q14746) | 0.12 | -0.101
COPB2_P35606_276_VWCVASLR (UniProt P35606) | 0.234 | 0.379
COPS6_Q7L5N1_264_EAYALCHCLPVLSTDK (UniProt Q7L5N1) | 0.0459 | -0.053
COPG1_Q9Y678_169_CSFDVVKR (UniProt Q9Y678) | -0.119 | -0.189
COA7_Q96BR5_100_CFLMACEK (UniProt Q96BR5) | 0.146 | 0.134
COQ8A_Q8NI60_641_AMFEEAYSNYCK (UniProt Q8NI60) | -0.0518 | 0.0597
COPG1_Q9Y678_726_EDPTAVACTFSCMMK (UniProt Q9Y678) | 0.167 | 0.11
COG4_Q9H9E3_554_MSFLVTLNNVEVCSENISTLK (UniProt Q9H9E3) | -0.076 | -0.0319
COA7_Q96BR5_24_SFLENMEVECNYHCYHEK (UniProt Q96BR5) | -0.00216 | -0.0957
CNTRL_Q7Z7A1_1535_DSDFQCLSK (UniProt Q7Z7A1) | -0.0189 | -0.45
COPG2_Q9UBF2_258_ETEDGHESPLFDFIESCLR (UniProt Q9UBF2) | -0.0965 | -0.236

Target | probe-labelled cysteine peptide fold change (10 µM) | probe-labelled cysteine peptide fold change (50 µM)
COPG1_Q9Y678_440+446_ETGLSHLCEFIEDCEFTVLATR (UniProt Q9Y678) | 0.135 | 0.0846
CNN3_Q15417_59_DGIILCELINK (UniProt Q15417) | 0.0707 | 0.00907
CMTR1_Q8N1G2_504_SNESHCSLQIK (UniProt Q8N1G2) | 0.0273 | -0.0233
COPG2_Q9UBF2_420_AIVDCIISIVEENPESK (UniProt Q9UBF2) | 0.346 | 0.317
CNOT1_A5YKK6_972_DYPQYCQHLASISHFMQFPHHLQEYIEYGQQSR (UniProt A5YKK6) | -0.168 | -0.135
COA7_Q96BR5_62_FNCEENQHSDSCYK (UniProt Q96BR5) | -0.126 | 0.0964
COG8_Q96MW5_595_LEPAGPACPEGGR (UniProt Q96MW5) | -0.172 | 0.233
COLGALT1_Q8NBJ5_203_AAYSNFWCGMTSQGYYK (UniProt Q8NBJ5) | -0.0916 | 0.0678
CNPY3_Q9BT09_194_NHQEEDLTEFLCANHVLK (UniProt Q9BT09) | -0.302 | 0.294
COPG1_Q9Y678_129_ALCQITDSTMLQAIER (UniProt Q9Y678) | -0.0807 | -0.0799
CNOT2_Q9NZN8_408_FASPWASSPCRPQDIDFHVPSEYLTNIHIR (UniProt Q9NZN8) | -0.067 | 0.245
COA5_Q86WW8_24_EDLGACLLQSDCVVQEGK (UniProt Q86WW8) | -0.374 | 0.21
CNN2_Q99439_61_DGTILCTLMNK (UniProt Q99439) | 0.264 | 0.000245
COQ7_Q99807_137_EGAMACTVAVEESIAHHYNNQIR (UniProt Q99807) | -0.144 | 0.105
COA7_Q96BR5_37_DPDGCYR (UniProt Q96BR5) | -0.00866 | 0.0452
CNOT1_A5YKK6_219_CPVVLAPLLYPEKR (UniProt A5YKK6) | -0.231 | -0.768
COASY_Q13057_144_YATSCYSCCPR (UniProt Q13057) | -0.369 | -0.359
COPG1_Q9Y678_722+726_EDPTAVACTFSCMMK (UniProt Q9Y678) | -0.00753 | -0.457
COMT_P21964_207_YLPDTLLLEECGLLRK (UniProt P21964) | 0.000836 | -0.204
COPA_P53621_1013_LQLCYQLTTVGK (UniProt P53621) | 0.167 | 0.444
COL4A3BP_Q9Y5P4_575_DNILCK (UniProt Q9Y5P4) | 0.197 | 0.301

Target | probe-labelled cysteine peptide fold change (10 µM) | probe-labelled cysteine peptide fold change (50 µM)
COPA_P53621_1169_NPTDAYQLNYDMHNPFDICAASYRPIYR (UniProt P53621) | 0.0749 | -0.127
COPS6_Q7L5N1_299_TCNTMNQFVNK (UniProt Q7L5N1) | -0.0716 | -0.199
COMT_P21964_238+241_GSSCFECTHYQSFLEYR (UniProt P21964) | -0.00343 | -0.424
COMT_P21964_223_GTVLLADNVICPGAPDFLAHVR (UniProt P21964) | -0.0481 | 0.108
CNOT10_Q9H9A5_665_CLHQAASMIHPK (UniProt Q9H9A5) | 0.047 | 0.0414
CNBP_P62633_111_DCDHADEQK (UniProt P62633) | 0.221 | 0.256
COPS3_Q9UNS2_25_QLSAQGQMTQLCELINK (UniProt Q9UNS2) | -0.139 | -0.0899
COPB2_P35606_681+689_CQFGLAQECLHHAQDYGGLLLLATASGNANMVNK (UniProt P35606) | -0.105 | 0.0226
CNNM4_Q6P4Q7_383_TVEDIMTQLQDCFMIR (UniProt Q6P4Q7) | 0.18 | -0.0113
COG2_Q14746_415_FREIAGSLEAALTDVLEDAPAESPYCLLASHR (UniProt Q14746) | 0.306 | 0.352
COMT_P21964_207_DRYLPDTLLLEECGLLR (UniProt P21964) | 0.0569 | 0.158
CNOT8_Q9UFF9_148_HEEEGIDTLHFAELLMTSGVVLCDNVK (UniProt Q9UFF9) | 0.46 | 0.659
CNST_Q6PJW8_439_SKTEPLISPGCDR (UniProt Q6PJW8) | -0.0395 | -0.108
CMTM3_Q96MX0_38_AFLCSLK (UniProt Q96MX0) | -0.91 | -3.05
COPA_P53621_585_GNNVYCLDRECRPR (UniProt P53621) | -0.102 | -0.299
CORO1A_P31146_24_HVFGQPAKADQCYEDVR (UniProt P31146) | -0.402 | -0.953
COLGALT1_Q8NBJ5_203_AAYSNFWCGMTSQGYYKR (UniProt Q8NBJ5) | -0.193 | -0.51
COMT_P21964_207_DRYLPDTLLLEECGLLRK (UniProt P21964) | -0.145 | -0.264
CNPY2_Q9Y2B0_171_TDLCDHALHISHDEL (UniProt Q9Y2B0) | -0.246 | -0.0461
COPB1_P53618_390_TLHSCSVR (UniProt P53618) | 0.334 | 0.262
